PubChem BioAssay AID1224830 | NIAID | 2016
The whole screen tested about 18,000 reagents; below is an unselected part. Over the whole deposit, about 2,900 (16%) were called active. 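Calls are made per well; low scores hint the gene aids the LPS response, high scores that it dampens it.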 Repeated entries: four replicate wells of each siRNA pool.

- Screen: 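Genes whose knock-down alters the TNF-alpha reporter response to LPS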 (primary screen)
- Cells: human THP-1 monocytic leukaemia cells, TNF dual-luciferase reporter clone, PMA-differentiated to macrophage-like cells
- Knock-down reagent: siRNA pool against human genes, 50 nM
- Duration: LPS for 4 h, given about 3 days after siRNA transfection
- Conditions: bacterial LPS (TLR4 ligand), 10 ng/ml
- Read-out: 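TNF firefly reporter luminescence divided by renilla, normalised to the plate median, then turned into a robust z-score for each replicate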
- Scale: TNF reporter robust z-score: higher = stronger TNF reporter response to LPS
- Rule for the call: 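a well is active when its z-score exceeds 2.8 or falls below -1.5; control wells carry no call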

no.	gene symbol	PubChem SID	TNF reporter robust z-score	outcome
1	TTLL1	SID315455478	1.84	inactive
2	TTLL1	SID315455478	2.02	inactive
3	TTLL1	SID315455478	1.75	inactive
4	TTLL1	SID315455478	2.2	inactive
5	GCLM	SID315448913	-0.05	inactive
6	GCLM	SID315448913	-0.44	inactive
7	GCLM	SID315448913	-0.09	inactive
8	GCLM	SID315448913	0.13	inactive
9	LILRB4	SID315454526	1.07	inactive
10	LILRB4	SID315454526	2.41	inactive
11	LILRB4	SID315454526	2.86	active
12	LILRB4	SID315454526	1.1	inactive
13	TEX19	SID315464749	-0.05	inactive
14	TEX19	SID315464749	-0.49	inactive
15	TEX19	SID315464749	-0.48	inactive
16	TEX19	SID315464749	-0.64	inactive
17	RPL28	SID315451195	2.44	inactive
18	RPL28	SID315451195	1.21	inactive
19	RPL28	SID315451195	1.39	inactive
20	RPL28	SID315451195	1.93	inactive
21	TDRD10	SID315461721	-0.19	inactive
22	TDRD10	SID315461721	-0.28	inactive
23	TDRD10	SID315461721	-1.29	inactive
24	TDRD10	SID315461721	-0.54	inactive
25	RBM5	SID315453885	-0.92	inactive
26	RBM5	SID315453885	-0.03	inactive
27	RBM5	SID315453885	-0.36	inactive
28	RBM5	SID315453885	-0.23	inactive
29	SEC24A	SID315454373	-0.15	inactive
30	SEC24A	SID315454373	0.36	inactive
31	SEC24A	SID315454373	-0.27	inactive
32	SPMIP10	SID315464552	0.99	inactive
33	SPMIP10	SID315464552	0.75	inactive
34	SPMIP10	SID315464552	0.88	inactive
35	SPMIP10	SID315464552	1.38	inactive
36	SNAP47	SID315461391	0.1	inactive
37	SNAP47	SID315461391	1.85	inactive
38	SNAP47	SID315461391	0.89	inactive
39	SNAP47	SID315461391	2.75	inactive
40	NOM1	SID315458934	-0.01	inactive
41	NOM1	SID315458934	0.28	inactive
42	NOM1	SID315458934	-1.19	inactive
43	NOM1	SID315458934	-0.38	inactive
44	SLC52A1	SID315457379	-0.31	inactive
45	SLC52A1	SID315457379	0.15	inactive
46	SLC52A1	SID315457379	-0.4	inactive
47	SLC52A1	SID315457379	0.61	inactive
48	DDX31	SID315459002	0.58	inactive
49	DDX31	SID315459002	0.63	inactive
50	DDX31	SID315459002	0.48	inactive
51	DDX31	SID315459002	0.99	inactive
52	ZNF804A	SID315460949	-0.25	inactive
53	ZNF804A	SID315460949	-0.44	inactive
54	ZNF804A	SID315460949	-0.48	inactive
55	ZNF804A	SID315460949	0.31	inactive
56	OVCH2	SID315464113	-0.05	inactive
57	OVCH2	SID315464113	2.07	inactive
58	OVCH2	SID315464113	-0.99	inactive
59	SUZ12	SID315455289	-1.15	inactive
60	SUZ12	SID315455289	-0.85	inactive
61	SUZ12	SID315455289	-0.64	inactive
62	SUZ12	SID315455289	-0.81	inactive
63	ATP13A4	SID315460257	-0.86	inactive
64	ATP13A4	SID315460257	-1.24	inactive
65	ATP13A4	SID315460257	-1.03	inactive
66	ATP13A4	SID315460257	-1.49	inactive

The list goes on, starting with the last 14 of the part before.
no.	gene symbol	PubChem SID	TNF reporter robust z-score	outcome
53	ZNF804A	SID315460949	-0.44	inactive
54	ZNF804A	SID315460949	-0.48	inactive
55	ZNF804A	SID315460949	0.31	inactive
56	OVCH2	SID315464113	-0.05	inactive
57	OVCH2	SID315464113	2.07	inactive
58	OVCH2	SID315464113	-0.99	inactive
59	SUZ12	SID315455289	-1.15	inactive
60	SUZ12	SID315455289	-0.85	inactive
61	SUZ12	SID315455289	-0.64	inactive
62	SUZ12	SID315455289	-0.81	inactive
63	ATP13A4	SID315460257	-0.86	inactive
64	ATP13A4	SID315460257	-1.24	inactive
65	ATP13A4	SID315460257	-1.03	inactive
66	ATP13A4	SID315460257	-1.49	inactive
67	WNT8B	SID315452149	-0.22	inactive
68	WNT8B	SID315452149	-0.18	inactive
69	WNT8B	SID315452149	-1.07	inactive
70	WNT8B	SID315452149	-0.72	inactive
71	COL21A1	SID315459904	0.84	inactive
72	COL21A1	SID315459904	-0.22	inactive
73	COL21A1	SID315459904	-0.4	inactive
74	COL21A1	SID315459904	0.05	inactive
75	ZNF767P	SID315459597	-0.5	inactive
76	ZNF767P	SID315459597	-0.26	inactive
77	ZNF767P	SID315459597	-0.34	inactive
78	ZNF767P	SID315459597	-0.54	inactive
79	TEX26	SID315461539	-0.96	inactive
80	TEX26	SID315461539	-0.3	inactive
81	TEX26	SID315461539	-0.63	inactive
82	TEX26	SID315461539	0.71	inactive
83	ZMYM3	SID315453119	-1	inactive
84	ZMYM3	SID315453119	-0.81	inactive
85	ZMYM3	SID315453119	-0.64	inactive
86	ZMYM3	SID315453119	0.13	inactive
87	UFM1	SID315456786	0.84	inactive
88	UFM1	SID315456786	0.72	inactive
89	UFM1	SID315456786	1.01	inactive
90	UFM1	SID315456786	0.64	inactive
91	ATG4C	SID315460590	0.08	inactive
92	ATG4C	SID315460590	-1.1	inactive
93	ATG4C	SID315460590	0.25	inactive
94	ATG4C	SID315460590	0.46	inactive
95	AK4	SID315447257	-1.57	active
96	AK4	SID315447257	-1.12	inactive
97	AK4	SID315447257	-0.48	inactive
98	AK4	SID315447257	-1.4	inactive
99	AK4	SID315464457	-0.3	inactive
100	AK4	SID315464457	-1.3	inactive
101	AK4	SID315464457	-0.6	inactive
102	AK4	SID315464457	-0.14	inactive
103	WASHC2A	SID315464444	-0.8	inactive
104	WASHC2A	SID315464444	-0.38	inactive
105	WASHC2A	SID315464444	-0.93	inactive
106	WASHC2A	SID315464444	-1.36	inactive
107	LTA	SID315449812	-0.65	inactive
108	LTA	SID315449812	-0.41	inactive
109	LTA	SID315449812	-0.52	inactive
110	SERPINA9	SID315463947	0.23	inactive
111	SERPINA9	SID315463947	-1.02	inactive
112	SERPINA9	SID315463947	-0.53	inactive
113	SERPINA9	SID315463947	0.04	inactive
